Test results as given in article PMC7916480, “Functional and Structural Characterization of Nucleic Acid Ligands That Bind to Activated Coagulation Factor XIII”.

Experiments:
[1] = target: T1, FXIII-A (A subunit, zymogen) (UniProt P00488); test: BLI; conditions: BLI (BLItz, SAX sensors, 3'-biotinylated aptamer 1 µM) in binding buffer, 2200 rpm; buffer composition; plate capture 30 min; commercial protein; label: 3'-biotin (BLI, capture, fibrinogen assay); single-stranded DNA
T1 sequence (looked up, limits assumed): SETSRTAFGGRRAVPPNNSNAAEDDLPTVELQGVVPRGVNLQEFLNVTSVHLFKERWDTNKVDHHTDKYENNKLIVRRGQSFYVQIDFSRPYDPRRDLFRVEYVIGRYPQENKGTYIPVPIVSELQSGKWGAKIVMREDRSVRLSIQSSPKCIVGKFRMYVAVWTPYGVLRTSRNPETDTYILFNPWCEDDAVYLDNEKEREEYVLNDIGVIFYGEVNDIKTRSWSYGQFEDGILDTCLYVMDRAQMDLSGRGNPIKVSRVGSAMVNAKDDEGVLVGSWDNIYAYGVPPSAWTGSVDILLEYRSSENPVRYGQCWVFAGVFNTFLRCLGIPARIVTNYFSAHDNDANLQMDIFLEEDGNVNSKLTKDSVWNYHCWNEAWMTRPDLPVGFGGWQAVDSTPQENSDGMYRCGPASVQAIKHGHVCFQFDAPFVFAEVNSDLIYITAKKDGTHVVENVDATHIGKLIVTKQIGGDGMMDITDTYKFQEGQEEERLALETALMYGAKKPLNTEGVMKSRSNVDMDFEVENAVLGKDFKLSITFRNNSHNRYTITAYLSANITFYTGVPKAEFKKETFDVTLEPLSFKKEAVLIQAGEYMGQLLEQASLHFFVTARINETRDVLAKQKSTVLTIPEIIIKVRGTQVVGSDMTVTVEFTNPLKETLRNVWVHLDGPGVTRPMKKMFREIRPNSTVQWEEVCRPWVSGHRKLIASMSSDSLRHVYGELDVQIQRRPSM

[2] = target: T2, FXIIIa (activated coagulation factor XIII) (human) (UniProt P00488); test: pull-down (aptamer-coated plate, activity read-out); conditions: 30 nM FXIIIa, recombinant protein, single-stranded DNA; for binding signal: label: 3'-biotin (BLI, capture, fibrinogen assay)
T2 sequence (looked up, limits assumed): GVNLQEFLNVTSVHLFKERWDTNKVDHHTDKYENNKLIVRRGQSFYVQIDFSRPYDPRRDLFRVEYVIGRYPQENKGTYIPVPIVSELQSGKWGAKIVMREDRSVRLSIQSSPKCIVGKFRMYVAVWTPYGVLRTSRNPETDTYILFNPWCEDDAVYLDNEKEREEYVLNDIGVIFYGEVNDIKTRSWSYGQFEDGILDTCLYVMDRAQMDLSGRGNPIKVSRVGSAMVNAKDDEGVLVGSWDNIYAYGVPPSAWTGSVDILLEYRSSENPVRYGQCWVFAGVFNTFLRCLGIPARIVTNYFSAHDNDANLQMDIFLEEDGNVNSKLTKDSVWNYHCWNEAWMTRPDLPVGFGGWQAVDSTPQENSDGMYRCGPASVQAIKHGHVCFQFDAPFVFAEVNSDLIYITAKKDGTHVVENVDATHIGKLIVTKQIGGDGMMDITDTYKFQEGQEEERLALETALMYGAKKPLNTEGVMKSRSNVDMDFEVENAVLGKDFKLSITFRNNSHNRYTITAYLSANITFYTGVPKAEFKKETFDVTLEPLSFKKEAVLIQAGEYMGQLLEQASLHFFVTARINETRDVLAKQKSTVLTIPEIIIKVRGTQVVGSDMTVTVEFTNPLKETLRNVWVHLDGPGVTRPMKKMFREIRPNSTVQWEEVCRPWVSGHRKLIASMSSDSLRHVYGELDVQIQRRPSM

Sequence | Kd [1] [nM] | binding signal [2] [% captured] | binding result ([2]; label: biotin (capture))
AAGCAGTGGTAAGTAGGTTGACCATCCGCCGATTAGGCAATCACGTGGCTTAGGCACCGTATCTCTTCGAGCAATCCACAC [FA1] | > 1000 | 1.6 | –
AAGCAGTGGTAAGTAGGTTGACCATCGTAGTTCGTACACCAGTCCATTCTAGGACTCACAATCTCTTCGAGCAATCCACAC [FA3] | > 1000 | – | –
AAGCAGTGGTAAGTAGGTTGACGCTGCGGGCATCACGTAAGTTAATATATCACTCGGCTATTCTCTTCGAGCAATCCACAC [FA6] | > 1000 | – | –
AAGCAGTGGTAAGTAGGTTGAGCTTTCATCACCCGTCGGTTAGACTAAGTCTCCAGCATCCTCTCTTCGAGCAATCCACAC [FA2] | > 1000 | 1.6 | –
AAGCAGTGGTAAGTAGGTTGATCATCATGTTATTTTTGTTCCATCACGCCAGTTCTGGTTCTCTCTTCGAGCAATCCACAC [FA8] | > 1000 | 1.6 | –
AAGCAGTGGTAAGTAGGTTGATCATCCTCTTTAAGTCATCACTTTAGTTTCTCCATCTACATCTCTTCGAGCAATCCACAC [FA12] | > 1000 | – | –
TACTGTCACGAGGATATAGCACATTAGTTCAGATACGATTGTTACTGTCA [negative control oligonucleotide] | – | – | no binding

For some of these results: Negatives hold for the conditions tested. Protein sequences can lack the tags named with them. For some of these results: For at least one entry, the source does not settle the construct or the ends of the probe. For some of these results: Whether high values mean tight binding is not given here for every scale.
